Results are given in words; binding and its absence hold for the method and conditions named. In cells and extracts the contact can be indirect. Some results given as binding are weak or reduced against the parent protein; the word gives no strength.
Assays:
Usp12 (human) = Usp12 (human) (UniProt O75317); assay: co-IP; immunoprecipitation of Usp12 on protein G Dynabeads from lysates of transfected HEK cells (RIPA buffer), immunoblotting with anti-Usp12 and anti-p62
Usp12-C48S (human) = Usp12-C48S (human) (UniProt O75317); assay: as above
Optineurin = Optineurin (UniProt Q96CV9); assay: co-IP; immunoprecipitation of Optn on protein G Dynabeads from lysates of transfected HEK cells (RIPA buffer), immunoblotting with anti-Usp12 and anti-Optn

Chains of the proteins cited; added tags and fusions are not shown.
UniProt Q96CV9: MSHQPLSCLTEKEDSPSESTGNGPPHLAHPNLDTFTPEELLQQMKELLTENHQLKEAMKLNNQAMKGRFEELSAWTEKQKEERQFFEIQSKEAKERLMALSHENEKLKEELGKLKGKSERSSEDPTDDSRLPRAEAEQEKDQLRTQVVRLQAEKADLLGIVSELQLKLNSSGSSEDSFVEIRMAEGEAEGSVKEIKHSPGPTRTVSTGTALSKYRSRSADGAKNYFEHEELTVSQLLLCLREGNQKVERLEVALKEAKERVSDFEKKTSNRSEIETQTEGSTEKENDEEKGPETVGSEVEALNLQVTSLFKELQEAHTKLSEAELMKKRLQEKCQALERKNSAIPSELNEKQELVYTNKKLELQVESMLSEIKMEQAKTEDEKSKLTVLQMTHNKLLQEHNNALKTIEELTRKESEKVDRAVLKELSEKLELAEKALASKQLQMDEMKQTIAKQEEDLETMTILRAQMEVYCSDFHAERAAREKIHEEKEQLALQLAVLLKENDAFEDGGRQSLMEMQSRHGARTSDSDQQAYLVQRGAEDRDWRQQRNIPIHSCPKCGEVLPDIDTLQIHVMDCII

Substance | binding (Usp12 (human)) | binding (Usp12-C48S (human)) | binding (Optineurin)
RFP-p62 (from UniProt Q13501 1-440) | binds | binds | –
Usp12 (from UniProt O75317 1-370) (enzyme) | – | – | binds
Usp12-C48S (from UniProt O75317 1-370) (enzyme) | – | – | binds
